Consider seven molecules from doi:10.1101/2025.09.10.675378 (bioRxiv, 2025).

Amino acid sequences for entries named in this document (tags omitted).
UniProt O15169: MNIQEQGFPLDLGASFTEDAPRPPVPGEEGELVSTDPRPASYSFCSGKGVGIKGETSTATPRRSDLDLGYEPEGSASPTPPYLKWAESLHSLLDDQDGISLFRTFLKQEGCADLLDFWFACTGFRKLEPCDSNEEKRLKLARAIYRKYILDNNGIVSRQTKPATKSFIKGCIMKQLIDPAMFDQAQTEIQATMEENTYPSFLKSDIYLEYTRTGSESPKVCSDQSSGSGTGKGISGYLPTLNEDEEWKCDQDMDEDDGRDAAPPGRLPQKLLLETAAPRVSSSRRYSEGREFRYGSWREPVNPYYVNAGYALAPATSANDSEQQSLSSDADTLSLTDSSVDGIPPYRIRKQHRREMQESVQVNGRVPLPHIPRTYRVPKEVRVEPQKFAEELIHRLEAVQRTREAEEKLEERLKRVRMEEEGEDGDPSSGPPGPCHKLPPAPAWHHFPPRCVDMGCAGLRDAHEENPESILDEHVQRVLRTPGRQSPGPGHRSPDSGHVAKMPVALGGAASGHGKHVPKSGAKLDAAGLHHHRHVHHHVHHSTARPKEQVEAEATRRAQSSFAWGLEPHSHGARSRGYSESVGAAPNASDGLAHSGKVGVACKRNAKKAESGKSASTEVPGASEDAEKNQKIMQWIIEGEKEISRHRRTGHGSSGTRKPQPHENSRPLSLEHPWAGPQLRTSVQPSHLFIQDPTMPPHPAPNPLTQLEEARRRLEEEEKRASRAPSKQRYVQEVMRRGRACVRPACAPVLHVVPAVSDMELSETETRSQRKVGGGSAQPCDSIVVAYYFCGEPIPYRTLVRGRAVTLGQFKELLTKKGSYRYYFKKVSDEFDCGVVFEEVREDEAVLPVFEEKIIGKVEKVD
UniProt Q9P219: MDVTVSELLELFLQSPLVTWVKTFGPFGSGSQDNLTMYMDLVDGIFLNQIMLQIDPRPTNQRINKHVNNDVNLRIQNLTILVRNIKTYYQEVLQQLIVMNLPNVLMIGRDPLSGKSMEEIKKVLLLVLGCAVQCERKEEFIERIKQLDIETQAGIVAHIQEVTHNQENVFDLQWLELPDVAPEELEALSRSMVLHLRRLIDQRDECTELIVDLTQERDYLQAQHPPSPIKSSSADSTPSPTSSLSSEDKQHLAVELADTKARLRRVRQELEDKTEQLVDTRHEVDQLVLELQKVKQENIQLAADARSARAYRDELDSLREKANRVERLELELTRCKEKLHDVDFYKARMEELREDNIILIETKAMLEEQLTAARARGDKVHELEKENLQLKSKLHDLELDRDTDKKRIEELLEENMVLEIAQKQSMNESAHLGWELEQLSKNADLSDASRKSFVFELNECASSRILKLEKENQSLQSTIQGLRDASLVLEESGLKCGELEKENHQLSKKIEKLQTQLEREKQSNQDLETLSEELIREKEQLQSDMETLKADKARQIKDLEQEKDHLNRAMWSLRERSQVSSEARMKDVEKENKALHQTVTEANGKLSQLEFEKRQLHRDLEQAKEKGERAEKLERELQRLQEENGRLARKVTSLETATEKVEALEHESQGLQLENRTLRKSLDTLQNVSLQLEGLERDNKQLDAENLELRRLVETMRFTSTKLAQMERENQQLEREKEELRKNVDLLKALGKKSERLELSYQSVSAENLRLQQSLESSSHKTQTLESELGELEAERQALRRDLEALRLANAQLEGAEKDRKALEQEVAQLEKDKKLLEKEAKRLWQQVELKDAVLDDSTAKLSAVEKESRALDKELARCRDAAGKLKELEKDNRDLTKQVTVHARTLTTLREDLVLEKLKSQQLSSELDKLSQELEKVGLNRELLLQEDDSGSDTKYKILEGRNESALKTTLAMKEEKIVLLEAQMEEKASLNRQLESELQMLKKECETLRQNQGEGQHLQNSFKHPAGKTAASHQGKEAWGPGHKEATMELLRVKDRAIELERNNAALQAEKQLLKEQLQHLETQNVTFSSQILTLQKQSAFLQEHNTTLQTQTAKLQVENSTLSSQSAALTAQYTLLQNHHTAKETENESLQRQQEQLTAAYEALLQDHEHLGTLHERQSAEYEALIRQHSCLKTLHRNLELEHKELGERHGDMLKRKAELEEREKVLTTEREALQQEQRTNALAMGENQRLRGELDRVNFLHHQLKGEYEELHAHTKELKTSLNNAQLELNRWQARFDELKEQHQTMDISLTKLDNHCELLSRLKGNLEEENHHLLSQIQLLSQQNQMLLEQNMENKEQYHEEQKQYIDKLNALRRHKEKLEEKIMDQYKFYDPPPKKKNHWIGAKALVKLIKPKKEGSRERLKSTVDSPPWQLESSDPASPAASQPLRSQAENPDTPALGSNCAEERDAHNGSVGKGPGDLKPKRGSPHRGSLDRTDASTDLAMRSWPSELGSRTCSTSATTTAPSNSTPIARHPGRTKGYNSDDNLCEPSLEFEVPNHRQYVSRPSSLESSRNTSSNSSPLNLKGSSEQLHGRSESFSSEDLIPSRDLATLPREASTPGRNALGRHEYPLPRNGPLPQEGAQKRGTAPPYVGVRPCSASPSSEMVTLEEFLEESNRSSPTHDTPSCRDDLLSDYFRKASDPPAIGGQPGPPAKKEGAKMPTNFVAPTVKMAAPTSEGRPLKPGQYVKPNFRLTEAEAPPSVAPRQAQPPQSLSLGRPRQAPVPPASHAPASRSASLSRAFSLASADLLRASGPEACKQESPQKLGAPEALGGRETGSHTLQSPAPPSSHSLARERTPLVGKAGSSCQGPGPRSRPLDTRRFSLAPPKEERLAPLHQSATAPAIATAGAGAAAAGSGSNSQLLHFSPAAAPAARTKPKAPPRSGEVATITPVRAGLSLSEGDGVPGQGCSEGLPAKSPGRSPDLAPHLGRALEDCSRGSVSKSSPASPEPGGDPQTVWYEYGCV
UniProt P49674: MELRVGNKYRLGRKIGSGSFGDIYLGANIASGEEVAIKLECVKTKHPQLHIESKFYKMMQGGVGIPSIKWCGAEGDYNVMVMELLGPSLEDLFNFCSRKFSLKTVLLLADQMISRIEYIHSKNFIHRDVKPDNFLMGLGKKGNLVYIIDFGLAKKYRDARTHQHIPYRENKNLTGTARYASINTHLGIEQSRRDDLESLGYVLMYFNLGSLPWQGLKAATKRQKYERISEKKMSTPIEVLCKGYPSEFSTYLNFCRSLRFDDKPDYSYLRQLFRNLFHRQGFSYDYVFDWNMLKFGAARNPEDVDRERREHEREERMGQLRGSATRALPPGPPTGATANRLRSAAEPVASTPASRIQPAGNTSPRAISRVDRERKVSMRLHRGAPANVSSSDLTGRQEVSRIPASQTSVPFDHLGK
UniProt O14641: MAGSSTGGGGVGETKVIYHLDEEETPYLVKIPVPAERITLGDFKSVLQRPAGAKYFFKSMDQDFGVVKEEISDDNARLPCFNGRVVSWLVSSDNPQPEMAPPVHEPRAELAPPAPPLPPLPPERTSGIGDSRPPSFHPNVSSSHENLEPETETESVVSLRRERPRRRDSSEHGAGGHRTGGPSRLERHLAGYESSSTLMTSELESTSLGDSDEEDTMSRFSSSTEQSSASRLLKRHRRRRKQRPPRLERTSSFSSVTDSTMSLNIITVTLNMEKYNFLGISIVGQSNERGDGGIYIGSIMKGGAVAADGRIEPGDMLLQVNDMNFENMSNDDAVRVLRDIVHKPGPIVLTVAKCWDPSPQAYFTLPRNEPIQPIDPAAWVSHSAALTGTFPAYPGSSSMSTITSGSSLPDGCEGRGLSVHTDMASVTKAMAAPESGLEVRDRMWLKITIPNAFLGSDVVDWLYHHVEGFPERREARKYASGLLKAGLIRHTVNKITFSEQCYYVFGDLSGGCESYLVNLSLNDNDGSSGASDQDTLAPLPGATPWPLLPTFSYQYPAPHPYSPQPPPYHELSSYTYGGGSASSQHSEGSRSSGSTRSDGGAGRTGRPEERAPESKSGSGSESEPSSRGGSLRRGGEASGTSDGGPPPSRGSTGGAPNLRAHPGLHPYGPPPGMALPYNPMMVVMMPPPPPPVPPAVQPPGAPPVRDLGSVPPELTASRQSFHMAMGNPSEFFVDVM
UniProt O95271: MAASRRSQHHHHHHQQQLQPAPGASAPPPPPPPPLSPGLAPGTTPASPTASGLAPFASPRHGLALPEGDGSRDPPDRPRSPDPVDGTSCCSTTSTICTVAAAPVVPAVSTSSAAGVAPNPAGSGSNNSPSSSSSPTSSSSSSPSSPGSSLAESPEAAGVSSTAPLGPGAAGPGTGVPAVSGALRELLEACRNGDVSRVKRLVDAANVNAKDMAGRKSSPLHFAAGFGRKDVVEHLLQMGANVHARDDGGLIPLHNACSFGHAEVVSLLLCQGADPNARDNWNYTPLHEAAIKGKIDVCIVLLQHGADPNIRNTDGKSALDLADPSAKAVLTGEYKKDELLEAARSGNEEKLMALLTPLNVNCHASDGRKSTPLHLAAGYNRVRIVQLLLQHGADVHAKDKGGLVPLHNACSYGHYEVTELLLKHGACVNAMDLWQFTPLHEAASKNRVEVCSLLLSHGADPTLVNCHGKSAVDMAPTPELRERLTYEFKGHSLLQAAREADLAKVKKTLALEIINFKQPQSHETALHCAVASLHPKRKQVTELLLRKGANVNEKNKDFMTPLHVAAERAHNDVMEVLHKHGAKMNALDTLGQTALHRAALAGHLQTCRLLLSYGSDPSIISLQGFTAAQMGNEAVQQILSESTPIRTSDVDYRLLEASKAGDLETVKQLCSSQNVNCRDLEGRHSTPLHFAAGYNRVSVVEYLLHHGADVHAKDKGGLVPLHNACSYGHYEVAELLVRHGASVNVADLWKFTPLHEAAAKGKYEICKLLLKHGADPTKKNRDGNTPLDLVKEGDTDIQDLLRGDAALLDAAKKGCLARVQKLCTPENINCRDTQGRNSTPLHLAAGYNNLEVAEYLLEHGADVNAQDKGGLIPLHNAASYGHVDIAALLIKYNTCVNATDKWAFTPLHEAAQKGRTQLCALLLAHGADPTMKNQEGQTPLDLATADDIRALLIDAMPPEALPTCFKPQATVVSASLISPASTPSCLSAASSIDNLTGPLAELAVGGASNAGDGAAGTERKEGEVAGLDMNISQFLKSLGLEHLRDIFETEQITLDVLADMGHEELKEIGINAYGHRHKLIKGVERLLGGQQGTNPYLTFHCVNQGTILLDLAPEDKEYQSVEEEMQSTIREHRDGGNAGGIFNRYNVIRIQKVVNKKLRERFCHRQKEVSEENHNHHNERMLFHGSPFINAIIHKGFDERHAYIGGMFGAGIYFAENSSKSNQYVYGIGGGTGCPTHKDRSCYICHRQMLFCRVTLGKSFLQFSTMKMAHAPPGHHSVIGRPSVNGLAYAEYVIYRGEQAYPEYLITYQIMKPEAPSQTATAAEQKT

For assay [1], the target named is T1, TurboID-DVL3 WT (human) (UniProt Q92997).
T1 sequence: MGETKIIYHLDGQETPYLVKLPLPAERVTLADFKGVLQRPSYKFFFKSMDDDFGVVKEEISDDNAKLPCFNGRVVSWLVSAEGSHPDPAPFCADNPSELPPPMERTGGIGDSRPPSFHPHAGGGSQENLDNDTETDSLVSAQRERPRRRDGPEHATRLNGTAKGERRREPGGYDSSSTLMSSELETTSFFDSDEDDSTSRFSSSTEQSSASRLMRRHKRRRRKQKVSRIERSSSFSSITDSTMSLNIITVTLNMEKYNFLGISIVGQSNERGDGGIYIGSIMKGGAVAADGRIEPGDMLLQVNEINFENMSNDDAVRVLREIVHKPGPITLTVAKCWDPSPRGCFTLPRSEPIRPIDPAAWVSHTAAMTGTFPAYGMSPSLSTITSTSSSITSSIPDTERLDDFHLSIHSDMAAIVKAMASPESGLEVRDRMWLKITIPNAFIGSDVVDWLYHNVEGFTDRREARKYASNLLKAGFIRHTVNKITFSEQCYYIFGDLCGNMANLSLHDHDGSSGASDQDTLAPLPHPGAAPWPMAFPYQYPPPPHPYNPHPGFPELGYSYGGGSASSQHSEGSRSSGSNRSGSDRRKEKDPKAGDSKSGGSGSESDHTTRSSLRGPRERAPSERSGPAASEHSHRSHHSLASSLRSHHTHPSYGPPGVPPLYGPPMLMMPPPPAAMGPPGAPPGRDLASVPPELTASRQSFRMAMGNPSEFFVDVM
In words: proximity labelling.

The target in assay [2] is T1, TurboID-DVL3 WT (human). In words: proximity labelling. The source holds these as a separate data set.

Like-named read-outs stand apart in the source and are kept apart here. These are yes or no findings as the source states them, for the method shown. In cells and extracts the contact can be indirect. A yes stands for co-enrichment or nearness to the bait. Other partners may have been found.

Turning to AXIN1 (from UniProt O15169 1-862), the binding result with TurboID-DVL3 WT (human) [1] is “binds”.

Turning to “CCDC88C/Daple (from UniProt Q9P219 1-2028)”, the binding entry with TurboID-DVL3 WT (human) [1] is on record as “binds”.

Regarding “CK1ε (CSNK1E) (from UniProt P49674 1-416) (enzyme)”, the binding entry in the assay with TurboID-DVL3 WT (human) [1] is “binds”.

As for DVL2 (from UniProt O14641 1-736), in the assay with TurboID-DVL3 WT (human) [1], the binding result is given as “binds”.

On to “TNKS (from UniProt O95271 1-1327) (enzyme)”, for which the binding entry with TurboID-DVL3 WT (human) [1] is on record as “binds”.

B1: TNKS2 (enzyme, UniProt Q9H2K2 1-1166)
chain: MSGRRCAGGGAACASAAAEAVEPAARELFEACRNGDVERVKRLVTPEKVNSRDTAGRKSTPLHFAAGFGRKDVVEYLLQNGANVQARDDGGLIPLHNACSFGHAEVVNLLLRHGADPNARDNWNYTPLHEAAIKGKIDVCIVLLQHGAEPTIRNTDGRTALDLADPSAKAVLTGEYKKDELLESARSGNEEKMMALLTPLNVNCHASDGRKSTPLHLAAGYNRVKIVQLLLQHGADVHAKDKGDLVPLHNACSYGHYEVTELLVKHGACVNAMDLWQFTPLHEAASKNRVEVCSLLLSYGADPTLLNCHNKSAIDLAPTPQLKERLAYEFKGHSLLQAAREADVTRIKKHLSLEMVNFKHPQTHETALHCAAASPYPKRKQICELLLRKGANINEKTKEFLTPLHVASEKAHNDVVEVVVKHEAKVNALDNLGQTSLHRAAYCGHLQTCRLLLSYGCDPNIISLQGFTALQMGNENVQQLLQEGISLGNSEADRQLLEAAKAGDVETVKKLCTVQSVNCRDIEGRQSTPLHFAAGYNRVSVVEYLLQHGADVHAKDKGGLVPLHNACSYGHYEVAELLVKHGAVVNVADLWKFTPLHEAAAKGKYEICKLLLQHGADPTKKNRDGNTPLDLVKDGDTDIQDLLRGDAALLDAAKKGCLARVKKLSSPDNVNCRDTQGRHSTPLHLAAGYNNLEVAEYLLQHGADVNAQDKGGLIPLHNAASYGHVDVAALLIKYNACVNATDKWAFTPLHEAAQKGRTQLCALLLAHGADPTLKNQEGQTPLDLVSADDVSALLTAAMPPSALPSCYKPQVLNGVRSPGATADALSSGPSSPSSLSAASSLDNLSGSFSELSSVVSSSGTEGASSLEKKEVPGVDFSITQFVRNLGLEHLMDIFEREQITLDVLVEMGHKELKEIGINAYGHRHKLIKGVERLISGQQGLNPYLTLNTSGSGTILIDLSPDDKEFQSVEEEMQSTVREHRDGGHAGGIFNRYNILKIQKVCNKKLWERYTHRRKEVSEENHNHANERMLFHGSPFVNAIIHKGFDERHAYIGGMFGAGIYFAENSSKSNQYVYGIGGGTGCPVHKDRSCYICHRQLLFCRVTLGKSFLQFSAMKMAHSPPGHHSVTGRPSVNGLALAEYVIYRGEQAYPEYLITYQIMRPEGMVDG
On to B1, for which the binding entry in the assay with TurboID-DVL3 WT (human) [2] is given as “binds”.

B2: VANGL1 (protein, UniProt Q8TAA9 1-524)
chain: MDTESTYSGYSYYSSHSKKSHRQGERTRERHKSPRNKDGRGSEKSVTIQPPTGEPLLGNDSTRTEEVQDDNWGETTTAITGTSEHSISQEDIARISKDMEDSVGLDCKRYLGLTVASFLGLLVFLTPIAFILLPPILWRDELEPCGTICEGLFISMAFKLLILLIGTWALFFRKRRADMPRVFVFRALLLVLIFLFVVSYWLFYGVRILDSRDRNYQGIVQYAVSLVDALLFIHYLAIVLLELRQLQPMFTLQVVRSTDGESRFYSLGHLSIQRAALVVLENYYKDFTIYNPNLLTASKFRAAKHMAGLKVYNVDGPSNNATGQSRAMIAAAARRRDSSHNELYYEEAEHERRVKKRKARLVVAVEEAFIHIQRLQAEEQQKAPGEVMDPREAAQAIFPSMARALQKYLRITRQQNYHSMESILQHLAFCITNGMTPKAFLERYLSAGPTLQYDKDRWLSTQWRLVSDEAVTNGLRDGIVFVLKCLDFSLVVNVKKIPFIILSEEFIDPKSHKFVLRLQSETSV
As for B2, the binding result in the assay with TurboID-DVL3 WT (human) [2] is listed as “binds”.
